Experimental data reported in article PMC2175517.
Construct, isoform or probe ends are uncertain for at least one entry. For some assays here: At least one result comes from cells or an extract, where the contact may be indirect. For some assays here: Negatives hold for the conditions tested. For some assays here: Weaker means in comparison with the reference protein, sequence or condition of that experiment.

Protein sequences, listed by entry. Tags and fused reporters are not part of them. Lines headed by an entry give the natural chain unless they say otherwise; changes in a name come on top.
UniProt P42225: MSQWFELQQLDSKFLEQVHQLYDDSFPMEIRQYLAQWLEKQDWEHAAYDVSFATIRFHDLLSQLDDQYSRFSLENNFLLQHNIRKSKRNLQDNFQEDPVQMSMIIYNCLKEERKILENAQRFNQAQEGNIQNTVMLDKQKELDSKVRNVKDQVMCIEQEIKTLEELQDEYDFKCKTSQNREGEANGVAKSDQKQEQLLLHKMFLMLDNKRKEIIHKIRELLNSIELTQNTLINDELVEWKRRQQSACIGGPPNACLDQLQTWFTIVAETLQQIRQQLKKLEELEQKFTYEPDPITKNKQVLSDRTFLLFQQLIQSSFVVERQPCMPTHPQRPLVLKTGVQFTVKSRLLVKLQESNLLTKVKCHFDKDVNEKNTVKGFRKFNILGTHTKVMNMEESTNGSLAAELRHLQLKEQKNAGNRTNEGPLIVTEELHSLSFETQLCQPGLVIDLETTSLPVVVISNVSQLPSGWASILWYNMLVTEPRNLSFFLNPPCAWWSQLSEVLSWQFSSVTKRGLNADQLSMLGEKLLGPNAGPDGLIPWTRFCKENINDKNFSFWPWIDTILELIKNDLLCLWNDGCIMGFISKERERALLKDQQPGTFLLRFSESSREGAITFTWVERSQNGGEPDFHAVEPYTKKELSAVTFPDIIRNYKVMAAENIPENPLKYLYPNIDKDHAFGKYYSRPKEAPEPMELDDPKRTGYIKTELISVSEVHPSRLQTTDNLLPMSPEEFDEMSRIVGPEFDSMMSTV
UniProt Q61501: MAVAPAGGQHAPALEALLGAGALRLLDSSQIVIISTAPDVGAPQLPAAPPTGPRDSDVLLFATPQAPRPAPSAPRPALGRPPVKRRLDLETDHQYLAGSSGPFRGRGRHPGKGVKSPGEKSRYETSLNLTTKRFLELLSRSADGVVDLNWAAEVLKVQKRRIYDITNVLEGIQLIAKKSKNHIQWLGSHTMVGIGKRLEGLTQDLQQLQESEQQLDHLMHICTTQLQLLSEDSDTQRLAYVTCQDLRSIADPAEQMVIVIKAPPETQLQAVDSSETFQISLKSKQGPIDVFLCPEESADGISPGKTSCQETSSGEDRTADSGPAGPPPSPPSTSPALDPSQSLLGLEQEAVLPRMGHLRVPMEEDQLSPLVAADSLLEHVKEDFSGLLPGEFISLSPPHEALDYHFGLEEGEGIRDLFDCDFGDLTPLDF
UniProt P08047: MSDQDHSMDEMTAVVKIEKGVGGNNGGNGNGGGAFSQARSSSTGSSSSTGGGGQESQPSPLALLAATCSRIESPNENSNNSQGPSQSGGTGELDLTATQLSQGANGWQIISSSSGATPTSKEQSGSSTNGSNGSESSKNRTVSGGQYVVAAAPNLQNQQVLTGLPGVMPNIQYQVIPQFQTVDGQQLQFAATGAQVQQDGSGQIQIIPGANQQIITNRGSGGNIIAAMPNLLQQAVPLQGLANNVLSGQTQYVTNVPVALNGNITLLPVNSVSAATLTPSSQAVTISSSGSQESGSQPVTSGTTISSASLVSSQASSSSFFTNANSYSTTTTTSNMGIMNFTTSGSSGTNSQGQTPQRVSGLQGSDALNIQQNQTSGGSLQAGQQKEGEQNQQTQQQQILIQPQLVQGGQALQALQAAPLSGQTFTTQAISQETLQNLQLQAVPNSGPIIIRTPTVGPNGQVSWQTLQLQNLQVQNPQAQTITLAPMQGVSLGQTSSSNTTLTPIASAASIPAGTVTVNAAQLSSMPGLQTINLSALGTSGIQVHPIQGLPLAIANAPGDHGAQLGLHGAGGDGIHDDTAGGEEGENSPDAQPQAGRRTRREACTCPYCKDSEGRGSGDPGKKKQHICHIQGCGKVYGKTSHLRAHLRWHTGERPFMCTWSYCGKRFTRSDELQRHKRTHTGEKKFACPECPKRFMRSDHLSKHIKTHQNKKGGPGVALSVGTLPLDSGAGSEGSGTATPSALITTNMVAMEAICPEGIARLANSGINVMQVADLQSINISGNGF
UniProt O89090, whole entry: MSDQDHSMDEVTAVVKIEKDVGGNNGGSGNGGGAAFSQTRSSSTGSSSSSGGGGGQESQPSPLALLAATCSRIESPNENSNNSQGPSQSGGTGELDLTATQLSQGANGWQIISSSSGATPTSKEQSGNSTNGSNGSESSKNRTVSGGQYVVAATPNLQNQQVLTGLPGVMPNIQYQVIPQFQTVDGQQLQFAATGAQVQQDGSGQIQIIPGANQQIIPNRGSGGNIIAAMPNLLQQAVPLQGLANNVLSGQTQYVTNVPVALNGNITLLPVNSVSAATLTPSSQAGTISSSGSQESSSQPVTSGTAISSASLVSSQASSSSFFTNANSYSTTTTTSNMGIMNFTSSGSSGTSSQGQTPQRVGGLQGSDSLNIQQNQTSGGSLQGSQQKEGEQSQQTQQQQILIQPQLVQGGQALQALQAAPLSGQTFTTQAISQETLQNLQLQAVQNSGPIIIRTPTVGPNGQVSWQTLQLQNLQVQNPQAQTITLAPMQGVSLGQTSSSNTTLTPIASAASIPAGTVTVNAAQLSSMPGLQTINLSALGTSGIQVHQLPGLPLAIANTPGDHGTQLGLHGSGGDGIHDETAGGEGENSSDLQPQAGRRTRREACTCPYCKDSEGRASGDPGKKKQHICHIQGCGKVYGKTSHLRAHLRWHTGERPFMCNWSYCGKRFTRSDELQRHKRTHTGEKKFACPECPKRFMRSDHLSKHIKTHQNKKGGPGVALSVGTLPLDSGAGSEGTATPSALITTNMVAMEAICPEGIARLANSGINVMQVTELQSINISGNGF
UniProt O70494: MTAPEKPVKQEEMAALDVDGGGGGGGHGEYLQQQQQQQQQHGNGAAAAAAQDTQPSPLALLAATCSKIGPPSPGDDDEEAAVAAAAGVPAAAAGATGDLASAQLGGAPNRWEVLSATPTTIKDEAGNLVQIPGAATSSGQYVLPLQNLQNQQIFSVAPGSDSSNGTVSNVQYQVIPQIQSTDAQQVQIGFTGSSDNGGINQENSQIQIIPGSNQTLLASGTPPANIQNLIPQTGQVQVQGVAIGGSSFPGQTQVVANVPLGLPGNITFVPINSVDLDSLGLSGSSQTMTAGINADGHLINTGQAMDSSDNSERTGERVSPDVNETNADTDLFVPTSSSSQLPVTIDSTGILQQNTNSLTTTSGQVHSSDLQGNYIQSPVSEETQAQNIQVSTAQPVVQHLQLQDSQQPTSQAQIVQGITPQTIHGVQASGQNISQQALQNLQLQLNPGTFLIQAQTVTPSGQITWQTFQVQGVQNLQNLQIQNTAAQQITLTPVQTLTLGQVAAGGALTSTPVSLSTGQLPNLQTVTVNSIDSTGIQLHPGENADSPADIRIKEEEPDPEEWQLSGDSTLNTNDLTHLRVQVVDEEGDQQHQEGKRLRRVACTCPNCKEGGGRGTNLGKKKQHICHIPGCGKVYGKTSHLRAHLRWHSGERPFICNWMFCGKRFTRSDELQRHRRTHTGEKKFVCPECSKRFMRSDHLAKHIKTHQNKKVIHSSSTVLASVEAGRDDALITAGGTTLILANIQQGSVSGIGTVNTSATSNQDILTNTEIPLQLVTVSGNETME
UniProt P05627, whole entry: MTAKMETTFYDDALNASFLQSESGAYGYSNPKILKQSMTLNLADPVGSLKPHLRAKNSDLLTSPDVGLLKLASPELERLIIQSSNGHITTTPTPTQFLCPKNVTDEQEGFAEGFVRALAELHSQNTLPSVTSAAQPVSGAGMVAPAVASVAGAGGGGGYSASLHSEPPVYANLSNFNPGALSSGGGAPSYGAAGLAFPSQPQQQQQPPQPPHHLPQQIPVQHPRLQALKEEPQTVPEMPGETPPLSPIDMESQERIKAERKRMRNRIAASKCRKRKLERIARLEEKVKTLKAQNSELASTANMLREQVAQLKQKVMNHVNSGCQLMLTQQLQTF

What was measured:
[1] = target: STAT-1 (endogenous) (mouse (embryonic fibroblasts)) (UniProt P42225); assay: EMSA; conditions: PARP-1+/+ and PARP-1-/- extracts, binding unaffected; EMSA in buffer D (5 mM HEPES, 10% glycerol, 0.05 mM EDTA, 0.125 mM PMSF), 25 ng poly(dI-dC) (omitted for recombinant Sp1), room temperature 5 min; pH not stated; protein in an extract; label: 5'-32P
[2] = target: E2F1 (endogenous) (mouse (embryonic fibroblasts)) (UniProt Q61501); assay: EMSA; conditions: PARP-1+/+ and PARP-1-/- extracts, binding unaffected; EMSA in buffer D (5 mM HEPES, 10% glycerol, 0.05 mM EDTA, 0.125 mM PMSF), 25 ng poly(dI-dC) (omitted for recombinant Sp1), room temperature 5 min; pH not stated; protein in an extract; label: 5'-32P
GST-Sp1-8xHis = GST-Sp1-8xHis (UniProt P08047); assay: EMSA; conditions: EMSA in buffer D (5 mM HEPES, 10% glycerol, 0.05 mM EDTA, 0.125 mM PMSF), 25 ng poly(dI-dC) (omitted for recombinant Sp1), room temperature 5 min, pH not stated, recombinant protein, protein details: GST (N-term), 8xHis (C-term), label: 5'-32P (probe), unlabeled as competitor
Sp1 (endogenous) [3] = target: Sp1 (endogenous) (UniProt O89090); assay: EMSA; conditions: EMSA in buffer D (5 mM HEPES, 10% glycerol, 0.05 mM EDTA, 0.125 mM PMSF), 25 ng poly(dI-dC) (omitted for recombinant Sp1), room temperature 5 min, pH not stated, protein in an extract, label: 5'-32P (probe), unlabeled as competitor
Sp1 (endogenous) [4] = target: Sp1 (endogenous) (UniProt O89090); assay: EMSA supershift; conditions: PARP-1+/+ extract, complex reduced in PARP-1-/- extract because of lower Sp1 expression; EMSA in buffer D (5 mM HEPES, 10% glycerol, 0.05 mM EDTA, 0.125 mM PMSF), 25 ng poly(dI-dC) (omitted for recombinant Sp1), room temperature 5 min; pH not stated; protein in an extract; label: 5'-32P (probe), unlabeled as competitor
Sp3 (endogenous) = Sp3 (endogenous) (UniProt O70494); assay: EMSA supershift; conditions: PARP-1+/+ and PARP-1-/- extracts; EMSA in buffer D (5 mM HEPES, 10% glycerol, 0.05 mM EDTA, 0.125 mM PMSF), 25 ng poly(dI-dC) (omitted for recombinant Sp1), room temperature 5 min; pH not stated; protein in an extract; label: 5'-32P (probe), unlabeled as competitor
Sp1 (endogenous) [5] = target: Sp1 (endogenous) (UniProt O89090); assay: competition with a labelled probe; conditions: EMSA in buffer D (5 mM HEPES, 10% glycerol, 0.05 mM EDTA, 0.125 mM PMSF), 25 ng poly(dI-dC) (omitted for recombinant Sp1), room temperature 5 min, pH not stated, protein in an extract, label: 5'-32P (probe), unlabeled as competitor
[6] = target: AP-1 (c-jun containing) (mouse (embryonic fibroblasts)) (UniProt P05627); assay: EMSA; conditions: PARP-1+/+ extract, abolished in PARP-1-/- extract, which lacks c-jun; EMSA in buffer D (5 mM HEPES, 10% glycerol, 0.05 mM EDTA, 0.125 mM PMSF), 25 ng poly(dI-dC) (omitted for recombinant Sp1), room temperature 5 min; pH not stated; protein in an extract; label: 5'-32P

AAGGCGGAGGTTTCCGGGAAAGCAGCACC (double strand) [STAT-1 oligonucleotide]
binding result [1]: binds

CAGAGCCGGCGGGAAAGGTGCGGGCGGTGC (double strand) [E2F1 oligonucleotide]
binding result [2]: binds

GATCATATCTGCGGGGCGGGGCAGACACAG (double strand) [Sp1 oligonucleotide]
binding result (GST-Sp1-8xHis; NAD+ and nicked DNA, no PARP-1): binds | binding result (GST-Sp1-8xHis; PARP-1 + NAD+ + PJ34 (binding entirely restored)): binds | binding result (Sp1 (endogenous) [3]; extract of H2O2-treated PARP-1+/+ cells, Sp1 protein level unchanged): binds more weakly | binding result (Sp1 (endogenous) [3]; extract of PARP-1+/+ cells treated with PJ34 + H2O2): binds | binding result (Sp1 (endogenous) [4]): binds | binding result (Sp3 (endogenous)): binds | binding result (Sp1 (endogenous) [5]; unlabeled, 100-fold excess competes entirely): binds

GATCCCCGCGTTGAGTCATTCGCCTC (double strand) [AP-1 oligonucleotide]
binding result [6]: binds

GATCTTATTTTGGATTGAAGCCAATATGAG (double strand) [NFI oligonucleotide]
binding result (Sp1 (endogenous) [5]; unlabeled NFI oligo, 100- and 500-fold, does not compete with the Sp1 probe): no binding
